The values below come from article PMC11977356.

Amino acid sequences for entries named in this document (tags omitted).
UniProt P46934: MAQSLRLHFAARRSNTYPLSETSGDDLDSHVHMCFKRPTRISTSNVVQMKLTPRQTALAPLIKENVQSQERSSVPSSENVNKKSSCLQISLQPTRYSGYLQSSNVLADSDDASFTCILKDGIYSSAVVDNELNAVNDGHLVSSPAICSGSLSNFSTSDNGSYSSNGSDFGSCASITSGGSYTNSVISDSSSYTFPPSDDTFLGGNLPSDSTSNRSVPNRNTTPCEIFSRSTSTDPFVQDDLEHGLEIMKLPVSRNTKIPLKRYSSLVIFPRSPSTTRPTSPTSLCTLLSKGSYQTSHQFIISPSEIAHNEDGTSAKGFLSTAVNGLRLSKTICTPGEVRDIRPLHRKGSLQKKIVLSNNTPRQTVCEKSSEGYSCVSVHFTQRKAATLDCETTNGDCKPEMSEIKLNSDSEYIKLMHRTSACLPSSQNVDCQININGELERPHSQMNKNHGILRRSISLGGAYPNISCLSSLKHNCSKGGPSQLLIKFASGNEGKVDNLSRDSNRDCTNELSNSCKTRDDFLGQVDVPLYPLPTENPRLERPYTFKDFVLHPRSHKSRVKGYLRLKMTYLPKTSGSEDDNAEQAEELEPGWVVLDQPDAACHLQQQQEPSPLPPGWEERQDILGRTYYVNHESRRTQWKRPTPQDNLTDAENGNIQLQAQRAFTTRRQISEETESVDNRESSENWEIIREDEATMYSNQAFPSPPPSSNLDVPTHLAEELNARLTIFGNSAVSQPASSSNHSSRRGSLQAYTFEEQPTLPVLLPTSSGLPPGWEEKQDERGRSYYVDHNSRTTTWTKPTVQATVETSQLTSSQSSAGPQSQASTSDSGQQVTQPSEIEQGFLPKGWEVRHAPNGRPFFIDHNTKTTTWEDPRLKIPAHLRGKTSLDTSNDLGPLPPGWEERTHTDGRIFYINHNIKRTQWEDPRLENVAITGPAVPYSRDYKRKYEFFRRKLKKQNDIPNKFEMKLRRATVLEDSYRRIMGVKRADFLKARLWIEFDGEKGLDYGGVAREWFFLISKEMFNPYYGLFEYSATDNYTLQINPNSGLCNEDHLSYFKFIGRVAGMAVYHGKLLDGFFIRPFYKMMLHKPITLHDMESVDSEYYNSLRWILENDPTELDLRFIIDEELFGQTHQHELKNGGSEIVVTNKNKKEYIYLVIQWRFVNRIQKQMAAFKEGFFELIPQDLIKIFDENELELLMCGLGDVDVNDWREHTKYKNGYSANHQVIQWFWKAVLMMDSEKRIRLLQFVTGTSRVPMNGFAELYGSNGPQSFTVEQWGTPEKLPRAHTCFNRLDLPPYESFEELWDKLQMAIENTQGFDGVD

This experiment deals with NEDD4 (human (endogenous in K562)) (UniProt P46934). In words: co-IP; endogenous co-IP from K562 and K562/DOX cell lysates with anti-NEDD4 antibody, Protein A/G magnetic beads at 25 °C for 1 h, low-pH elution, western blot. (Immunoblotting shows a protein as a band on a membrane.)

These are yes or no findings as the source states them, for the method shown. In cells and extracts the contact can be indirect. Some entries that bind do so weakly or less than the wild type.

B1: NEDD4 binding protein 1 (protein, UniProt O75113 1-896)
chain: MAARAVLDEFTAPAEKAELLEQSRGRIEGLFGVSLAVLGALGAEEPLPARIWLQLCGAQEAVHSAKEYIKGICEPELEERECYPKDMHCIFVGAESLFLKSLIQDTCADLCILDIGLLGIRGSAEAVVMARSHIQQFVKLFENKENLPSSQKESEVKREFKQFVEAHADNYTMDLLILPTSLKKELLTLTQGEENLFETGDDEVIEMRDSQQTEFTQNAATGLNISRDETVLQEEARNKAGTPVSELTKQMDTVLSSSPDVLFDPINGLTPDEEALSNERICQKRRFSDSEERHTKKQFSLENVQEGEILHDAKTLAGNVIADLSDSSADSENLSPDIKETTEEMEYNILVNFFKTMGYSQEIVEKVIKVYGPSTEPLLLLEEIEKENKRFQEDREFSAGTVYPETNKTKNKGVYSSTNELTTDSTPKKTQAHTQQNMVEKFSQLPFKVEAKPCTSNCRINTFRTVPIEQKHEVWGSNQNYICNTDPETDGLSPSVASPSPKEVNFVSRGASSHQPRVPLFPENGLHQQPEPLLPNNMKSACEKRLGCCSSPHSKPNCSTLSPPMPLPQLLPSVTDARSAGPSDHIDSSVTGVQRFRDTLKIPYKLELKNEPGRTDLKHIVIDGSNVAITHGLKKFFSCRGIAIAVEYFWKLGNRNITVFVPQWRTRRDPNVTEQHFLTQLQELGILSLTPARMVFGERIASHDDRFLLHLADKTGGIIVTNDNFREFVNESVSWREIITKRLLQYTFVGDIFMVPDDPLGRSGPRLEEFLQKEVCLRDMQPLLSALPNVGMFDPSFRVPGTQAASTSHQPPTRIQGAPSSHWLPQQPHFPLLPALPSLQQNLPMPAQRSSAETNELREALLKIFPDSEQRLKIDQILVAHPYMKDLNALSAMVLD
As to B1, the binding entry is recorded as “binds”.
